{"source": "the supplement of paper PMC8728848", "binders": {"B1": {"name": "S100A12 (Homo sapiens), P80511 (protein)", "chain": "MTKLEEHLEGIVNIFHQYSVRKGHFDTLSKGELKQLLTKELANTIKNIKDKAVIDEIFQGLDANQDEQVDFQEFISLVAIALKAAHYHTHKE"}}, "assay_in_all_cases": "glycan array binding signal (z-score within array); higher = stronger binding", "settings_in_all_cases": "glycan notation: IUPAC condensed, linker removed", "key": {"[1]": {"biological_target": "Gal(b1-3)[Neu5Ac(a2-6)]GlcNAc(a1-4)Gal(b1-4)Glc", "outline": "(§1)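 Glycan array binding is given as a within-array Z-score, which can be read as non-binding when negative. The arrays, 3228 of them, came from the Consortium for Functional Glycomics database and were retained only where the protein sequence was available. Z-scores were averaged across arrays of the same protein sequence at different concentrations or buffers and across linkers.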"}, "[2]": {"biological_target": "Gal(b1-3)[Neu5Ac(a2-6)]GlcNAc(b1-6)Gal(b1-4)Glc", "outline": "as §1"}, "[3]": {"biological_target": "Gal(b1-3)[Neu5Ac(b2-6)]GalNAc", "outline": "as §1"}, "[4]": {"biological_target": "Gal(b1-3)[Neu5Ac(b2-6)]GlcNAc", "outline": "as §1"}, "[5]": {"biological_target": "Gal(b1-4)GalNAc(a1-3)[Fuc(a1-2)]Gal(b1-4)GlcNAc", "outline": "as §1"}, "[6]": {"biological_target": "Gal(b1-4)GalNAc(b1-3)[Fuc(a1-2)]Gal(b1-4)GlcNAc", "outline": "as §1"}, "[7]": {"biological_target": "Gal(b1-4)Glc", "outline": "as §1"}, "[8]": {"biological_target": "Gal(b1-4)Glc6S", "outline": "as §1"}, "[9]": {"biological_target": "Gal(b1-4)GlcNAc", "outline": "as §1"}, "[10]": {"biological_target": "Gal(b1-4)GlcNAc(b1-2)Man(a1-3)[Gal(b1-4)GlcNAc(b1-2)Man(a1-6)]Man(b1-4)GlcNAc(b1-4)GlcNAc", "outline": "as §1"}, "[11]": {"biological_target": "Gal(b1-4)GlcNAc(b1-3)Gal(b1-3)GlcNAc", "outline": "as §1"}, "[12]": {"biological_target": "Gal(b1-4)GlcNAc(b1-3)Gal(b1-4)Glc", "outline": "as §1"}, "[13]": {"biological_target": "Gal(b1-4)GlcNAc(b1-3)Gal(b1-4)GlcNAc", "outline": "as §1"}, "[14]": {"biological_target": "Gal(b1-4)GlcNAc(b1-3)Gal(b1-4)GlcNAc(b1-3)Gal(b1-4)GlcNAc", "outline": "as §1"}, "[15]": {"biological_target": "Gal(b1-4)GlcNAc(b1-3)Gal(b1-4)[Fuc(a1-3)]GlcNAc(b1-3)Gal(b1-4)[Fuc(a1-3)]GlcNAc", "outline": "as §1"}, "[16]": {"biological_target": "Gal(b1-4)GlcNAc(b1-3)GalNAc", "outline": "as §1"}, "[17]": {"biological_target": "Gal(b1-4)GlcNAc(b1-3)[Gal(b1-4)GlcNAc(b1-6)]GalNAc", "outline": "as §1"}, "[18]": {"biological_target": "Gal(b1-4)GlcNAc(b1-6)Gal(b1-4)GlcNAc(b1-6)GalNAc", "outline": "as §1"}, "[19]": {"biological_target": "Gal(b1-4)GlcNAc(b1-6)GalNAc", "outline": "as §1"}, "[20]": {"biological_target": "Gal(b1-4)GlcNAc(b1-6)[Gal(b1-3)]GalNAc", "outline": "as §1"}, "[21]": {"biological_target": "Gal(b1-4)GlcNAc(b1-6)[Gal(b1-3)]GlcNAc", "outline": "as §1"}, "[22]": {"biological_target": "Gal3S(b1-3)GalNAc", "outline": "as §1"}, "[23]": {"biological_target": "Gal3S(b1-3)GlcNAc", "outline": "as §1"}, "[24]": {"biological_target": "Gal3S(b1-3)[Fuc(a1-4)]GlcNAc", "outline": "as §1"}, "[25]": {"biological_target": "Gal3S(b1-4)Glc", "outline": "as §1"}, "[26]": {"biological_target": "Gal3S(b1-4)Glc6S", "outline": "as §1"}, "[27]": {"biological_target": "Gal3S(b1-4)GlcNAc", "outline": "as §1"}, "[28]": {"biological_target": "Gal3S(b1-4)GlcNAc6S", "outline": "as §1"}, "[29]": {"biological_target": "Gal3S6S(b1-4)GlcNAc", "outline": "as §1"}, "[30]": {"biological_target": "Gal3S6S(b1-4)GlcNAc6S", "outline": "as §1"}, "[31]": {"biological_target": "Gal4S(b1-4)GlcNAc", "outline": "as §1"}, "[32]": {"biological_target": "Gal4S6S(b1-4)GlcNAc", "outline": "as §1"}, "[33]": {"biological_target": "Gal6S(b1-4)Glc", "outline": "as §1"}, "[34]": {"biological_target": "Gal6S(b1-4)Glc6S", "outline": "as §1"}, "[35]": {"biological_target": "Gal6S(b1-4)GlcNAc", "outline": "as §1"}, "[36]": {"biological_target": "GalNAc(a1-3)Gal", "outline": "as §1"}, "[37]": {"biological_target": "GalNAc(a1-3)GalNAc", "outline": "as §1"}, "[38]": {"biological_target": "GalNAc(b1-3)Gal(a1-4)Gal(b1-4)GlcNAc", "outline": "as §1"}, "[39]": {"biological_target": "GalNAc(b1-3)GalNAc", "outline": "as §1"}, "[40]": {"biological_target": "GalNAc(b1-4)GlcNAc", "outline": "as §1"}, "[41]": {"biological_target": "Glc(a1-4)Glc", "outline": "as §1"}, "[42]": {"biological_target": "Glc(a1-6)Glc(a1-6)Glc", "outline": "as §1"}, "[43]": {"biological_target": "Glc(b1-4)Glc", "outline": "as §1"}, "[44]": {"biological_target": "Glc(b1-6)Glc", "outline": "as §1"}, "[45]": {"biological_target": "GlcA(b1-3)Gal", "outline": "as §1"}}, "note": "This is one part of the list."}
{"binder": "B1", "values": [{"measurement": "glycan array binding signal (z-score)", "setting": "[1]", "value": -0.277}, {"measurement": "glycan array binding signal (z-score)", "setting": "[2]", "value": -0.42}, {"measurement": "glycan array binding signal (z-score)", "setting": "[3]", "value": 0.585}, {"measurement": "glycan array binding signal (z-score)", "setting": "[4]", "value": -0.479}, {"measurement": "glycan array binding signal (z-score)", "setting": "[5]", "value": -0.549}, {"measurement": "glycan array binding signal (z-score)", "setting": "[6]", "value": -0.523}, {"measurement": "glycan array binding signal (z-score)", "setting": "[7]", "value": 0.655}, {"measurement": "glycan array binding signal (z-score)", "setting": "[8]", "value": 0.919}, {"measurement": "glycan array binding signal (z-score)", "setting": "[9]", "value": -0.535}, {"measurement": "glycan array binding signal (z-score)", "setting": "[10]", "value": -0.82}, {"measurement": "glycan array binding signal (z-score)", "setting": "[11]", "value": -0.391}, {"measurement": "glycan array binding signal (z-score)", "setting": "[12]", "value": -0.554}, {"measurement": "glycan array binding signal (z-score)", "setting": "[13]", "value": -0.526}, {"measurement": "glycan array binding signal (z-score)", "setting": "[14]", "value": -0.226}, {"measurement": "glycan array binding signal (z-score)", "setting": "[15]", "value": -0.064}, {"measurement": "glycan array binding signal (z-score)", "setting": "[16]", "value": -0.812}, {"measurement": "glycan array binding signal (z-score)", "setting": "[17]", "value": -0.703}, {"measurement": "glycan array binding signal (z-score)", "setting": "[18]", "value": -0.768}, {"measurement": "glycan array binding signal (z-score)", "setting": "[19]", "value": -0.528}, {"measurement": "glycan array binding signal (z-score)", "setting": "[20]", "value": -0.655}, {"measurement": "glycan array binding signal (z-score)", "setting": "[21]", "value": -0.243}, {"measurement": "glycan array binding signal (z-score)", "setting": "[22]", "value": 0.207}, {"measurement": "glycan array binding signal (z-score)", "setting": "[23]", "value": 0.125}, {"measurement": "glycan array binding signal (z-score)", "setting": "[24]", "value": 0.019}, {"measurement": "glycan array binding signal (z-score)", "setting": "[25]", "value": 1.05}, {"measurement": "glycan array binding signal (z-score)", "setting": "[26]", "value": 2.45}, {"measurement": "glycan array binding signal (z-score)", "setting": "[27]", "value": -0.018}, {"measurement": "glycan array binding signal (z-score)", "setting": "[28]", "value": 2.67}, {"measurement": "glycan array binding signal (z-score)", "setting": "[29]", "value": 1.74}, {"measurement": "glycan array binding signal (z-score)", "setting": "[30]", "value": 2.83}, {"measurement": "glycan array binding signal (z-score)", "setting": "[31]", "value": 0.456}, {"measurement": "glycan array binding signal (z-score)", "setting": "[32]", "value": 2.91}, {"measurement": "glycan array binding signal (z-score)", "setting": "[33]", "value": 0.447}, {"measurement": "glycan array binding signal (z-score)", "setting": "[34]", "value": 2.19}, {"measurement": "glycan array binding signal (z-score)", "setting": "[35]", "value": 0.742}, {"measurement": "glycan array binding signal (z-score)", "setting": "[36]", "value": -0.359}, {"measurement": "glycan array binding signal (z-score)", "setting": "[37]", "value": -0.65}, {"measurement": "glycan array binding signal (z-score)", "setting": "[38]", "value": -0.499}, {"measurement": "glycan array binding signal (z-score)", "setting": "[39]", "value": -0.726}, {"measurement": "glycan array binding signal (z-score)", "setting": "[40]", "value": -0.557}, {"measurement": "glycan array binding signal (z-score)", "setting": "[41]", "value": -0.387}, {"measurement": "glycan array binding signal (z-score)", "setting": "[42]", "value": 0.4}, {"measurement": "glycan array binding signal (z-score)", "setting": "[43]", "value": 0.689}, {"measurement": "glycan array binding signal (z-score)", "setting": "[44]", "value": 0.421}, {"measurement": "glycan array binding signal (z-score)", "setting": "[45]", "value": 0.368}]}
